Test results taken from patent US20100183585A1, “METHODS AND COMPOSITIONS FOR TREATING TUMORS AND METASTASES THROUGH THE MODULATION OF LATEXIN” (University of Kentucky Research Foundation, priority 2008, published 2010).
These are yes or no findings as the source states them, for the method shown. Tags and fused reporters may be left off the sequences shown.

Molecular target: Carboxypeptidase A
Test: TAP-tag purification from FDCP-1 lysate, identification of prey proteins

B1: TAP-tagged latexin (TAP-m(ouse)latexin) (protein, mouse, UniProt P70202 1-222, looked up, not shown: large carriers)
chain: MEIPPTHYAASRAASVAENCINYQQGTPHKLFLVQTVQQASKEDIPGRGHKYHLKFSVEEIIQKQVTVNCTAEVLYPQMGQGSAPEVNFTFEGEIGKNPDEEDNTFYQSLMSLKRPLEAQDIPDNFGNVSPQMKPVQHLAWVACGYVMWQNSTEDTWYKMLKIQTVKQVQRNDDFIELDYTILLHDIASQEIIPWQMQVLWHPQYGTKVKHNSRLPKEGQAE
binding: no binding
